According to PMC2843739:
Results are given in words; binding and its absence hold for the method and conditions named. Some binding calls cover weakened binding; strength is not graded here.

By UniProt entry, the sequences of proteins in these tests, tags left out. Residues count along the entry.
UniProt P08113, residues 22-802: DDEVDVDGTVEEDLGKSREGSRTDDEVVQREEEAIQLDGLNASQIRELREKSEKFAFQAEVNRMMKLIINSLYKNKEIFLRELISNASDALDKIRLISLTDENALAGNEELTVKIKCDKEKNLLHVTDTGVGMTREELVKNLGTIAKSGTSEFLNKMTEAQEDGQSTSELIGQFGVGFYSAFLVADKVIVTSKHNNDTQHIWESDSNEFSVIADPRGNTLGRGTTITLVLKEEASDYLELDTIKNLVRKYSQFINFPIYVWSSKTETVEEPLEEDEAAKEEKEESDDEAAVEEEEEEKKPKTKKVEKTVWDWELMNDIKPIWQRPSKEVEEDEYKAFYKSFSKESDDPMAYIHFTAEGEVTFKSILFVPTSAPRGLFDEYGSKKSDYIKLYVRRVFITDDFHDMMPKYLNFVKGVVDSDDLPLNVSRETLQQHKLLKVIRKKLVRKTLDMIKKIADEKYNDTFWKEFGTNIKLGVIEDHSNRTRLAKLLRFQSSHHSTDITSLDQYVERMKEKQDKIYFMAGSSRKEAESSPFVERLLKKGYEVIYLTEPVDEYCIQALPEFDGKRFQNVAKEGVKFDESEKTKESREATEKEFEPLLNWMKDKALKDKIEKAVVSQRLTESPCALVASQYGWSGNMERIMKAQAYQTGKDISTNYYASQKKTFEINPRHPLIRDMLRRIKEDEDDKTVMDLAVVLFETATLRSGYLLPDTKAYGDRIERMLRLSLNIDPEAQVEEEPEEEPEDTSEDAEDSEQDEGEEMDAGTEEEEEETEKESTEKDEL

Biological target: T1, recombinant AIMP1 (UniProt Q12904)
T1 sequence: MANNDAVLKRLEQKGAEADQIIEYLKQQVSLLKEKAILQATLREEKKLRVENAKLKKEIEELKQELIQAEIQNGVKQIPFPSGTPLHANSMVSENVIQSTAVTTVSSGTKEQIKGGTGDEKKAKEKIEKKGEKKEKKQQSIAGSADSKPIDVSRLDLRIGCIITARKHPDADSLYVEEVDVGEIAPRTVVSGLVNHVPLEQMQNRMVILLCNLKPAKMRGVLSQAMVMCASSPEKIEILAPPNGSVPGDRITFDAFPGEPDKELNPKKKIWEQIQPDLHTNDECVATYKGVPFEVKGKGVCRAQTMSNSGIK
Experiment: ELISA; AIMP1 coated at 500ng/well in PBS (pH 7.4), blocked with 1% BSA; 10ng/well biotin-conjugated gp96 in Tris buffer (25 mM Tris, 10 mM NaCl, 0.4% Triton X-100), with test compounds or DMSO; detected with HRP-conjugated streptavidin, absorbance at 450 nm; both purified

binding: binds
Substance: biotin-conjugated murine gp96 (from UniProt P08113 22-802)
